Measured values reported in patent US12589171B2, “177-Lu labeled peptide for site-specific uPAR-targeting” (priority 2012, dated 2026).
Not every detail of the peptide structures is certain; ends, links or a residue may be inferred.

Tested on: PC-3M.Luc
Assay: Disseminated metastatic prostate cancer model, bioluminescence imaging
Assay type: in vivo, NMRI nude mice
Details: 3 × 18 MBq

## CC(C)C[C@H](NC(=O)[C@H](Cc1ccc(O)cc1)NC(=O)C(CCCNC(=N)N)NC(=O)C(CO)NC(=O)C(Cc1ccccc1)NC(=O)[C@H](CC1CCCCC1)NC(=O)[C@H](CC(=O)O)NC(=O)CN1CCN(CC(=O)O)CCN(CC(=O)O)CCN(CC(=O)O)CC1)C(=O)N[C@@H](Cc1c[nH]c2ccccc12)C(=O)N[C@@H](CO)C(N)=O (stereo partly shown) [^177Lu-DOTA-AE105, metal not drawn]
  Stable disease/response (number of mice): 8
